## Assay results

Data taken from PubChem BioAssay AID1224904, deposited by Broad Institute (2016).

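Selective DUX4 reporter inhibition in doxycycline-induced 293T-iDUX4 cells, scored as Gaussia percent activity minus Italica percent activity, after a 24-hour treatment.
The test concentration is not given here.
Percent difference between the Gaussia and Italica channels; more negative values mean more selective suppression of the DUX4 reporter, and higher values mean less activity.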

Values are in %.
How 0% and 100% were set is not given here.
Common to all entries: measured here: selective DUX4 reporter inhibition.
Part of the compounds only, not a random draw; the main read-out is not listed here.

CC(C)CC#Cc1ccc([C@H]2[C@@H](CO)N3C(=O)CN(S(=O)(=O)c4cccc(F)c4)C[C@H]23)cc1 gave Gaussia minus Italica difference 2.529%. COc1ccc(-c2ccccc2[C@H]2[C@@H](C#N)N(C(=O)NC3CCCCC3)[C@H]2CO)cc1 gave Gaussia minus Italica difference -8.564%. O=C(C[C@H]1C[C@@H]2c3cc(NC(=O)Nc4ccc(C(F)(F)F)cc4)ccc3O[C@@H]2[C@@H](CO)O1)NCc1ccc2c(c1)OCO2 gave Gaussia minus Italica difference -6.886%. CN(C)C(=O)c1cccc(-c2ccc3c(c2)[C@@H]2[C@@H](CCN2C(=O)C2CCC2)[C@H](CO)N3)c1 read Gaussia minus Italica difference -8.042%. COc1cccc(-c2ccc3c(c2)[C@@H]2[C@@H](CCN2C(=O)c2ccccc2F)[C@@H](CO)N3C)c1 read Gaussia minus Italica difference 5.836%. Result for COc1ccc(S(=O)(=O)N2CC[C@@H]3[C@H](CO)Nc4ccc(-c5ccccc5F)cc4[C@@H]32)cc1 was Gaussia minus Italica difference 5.552%.

For CCN1[C@@H]2c3ccc(-c4cccnc4)c(=O)n3C[C@@H]2[C@@H](CO)[C@@H]1C(=O)NCc1ccccc1 the result was Gaussia minus Italica difference -4.46%. With Cc1cccc(-c2ccc([C@H]3[C@H](CO)N4CCCCN(CCC(F)(F)F)C[C@@H]34)cc2)c1 the assay gave Gaussia minus Italica difference -8.039%. With CCCNC(=O)N1CC(=O)N2[C@@H](CO)[C@H](c3ccc(C#Cc4ccccc4)cc3)[C@@H]2C1 the assay gave Gaussia minus Italica difference -4.699%. O=C(Nc1ccc2c(c1)[C@@H]1C[C@H](CC(=O)N3CCc4ccccc4C3)O[C@@H](CO)[C@@H]1O2)NC1CCCC1 gave Gaussia minus Italica difference -10.21%. O=C([C@H]1N[C@H]2c3ccc(-c4ccccc4F)c(=O)n3C[C@H]2[C@@H]1CO)N1CCc2ccccc2C1 gave Gaussia minus Italica difference -8.197%. With COCC(=O)Nc1ccc2c(c1)[C@H]1C[C@H](CC(=O)NCc3ccc(-c4ccccc4)cc3)O[C@H](CO)[C@H]1O2 the assay gave Gaussia minus Italica difference -3.381%.

For COc1ccc(C#Cc2ccc([C@H]3[C@@H](CO)N4CCCCN(C(=O)Nc5cccc(F)c5)C[C@@H]34)cc2)cc1 the result was Gaussia minus Italica difference -15.69%. CCC(=O)N1CCCCN2[C@H](CO)[C@H](c3ccc(/C=C/c4ccccc4)cc3)[C@H]2C1 gave Gaussia minus Italica difference 5.642%. With CCC(=O)N1CCCCN2[C@H](CO)[C@@H](c3ccc(/C=C/c4ccccc4)cc3)[C@@H]2C1 the assay gave Gaussia minus Italica difference -19.21%. With COc1ccccc1C#Cc1ccc([C@@H]2[C@H](CO)N3CCCCN(CCC(F)(F)F)C[C@@H]23)cc1 the assay gave Gaussia minus Italica difference -17.08%. Cc1ccccc1-c1ccc([C@@H]2[C@H](CO)N3CCCCN(C(=O)Nc4cccc(F)c4)C[C@@H]23)cc1 gave Gaussia minus Italica difference 8.32%. COc1ccc(C#Cc2ccc([C@@H]3[C@@H](CO)N4CCCCN(C(=O)Nc5cccc(F)c5)C[C@H]34)cc2)cc1 read Gaussia minus Italica difference -7.268%.

Result for CN(C)C(=O)c1ccc(-c2ccc3c(c2)[C@@H]2[C@@H](CCN2C(=O)c2ccc4c(c2)OCO4)[C@@H](CO)N3)cc1 was Gaussia minus Italica difference 6.459%. With O=C(C[C@@H]1CC[C@@H]2[C@H](COC[C@@H](O)CN2Cc2cccc(C(F)(F)F)c2)O1)NCCc1ccccc1 the assay gave Gaussia minus Italica difference -7.358%. Result for CC(C)CC#Cc1ccc([C@@H]2[C@H]3CN(C(=O)Cc4ccccc4)CC(=O)N3[C@H]2CO)cc1 was Gaussia minus Italica difference 1.117%. O=S(=O)(c1cccs1)N1CCCCN2[C@H](CO)[C@H](c3ccc(Br)cc3)[C@@H]2C1 read Gaussia minus Italica difference -23.46%. Result for COc1ccc2c3c(n(C)c2c1)[C@H](CO)N(C(=O)c1cccc(F)c1)CC31CCN(C(=O)c2cccc(F)c2)CC1 was Gaussia minus Italica difference -12.01%. Result for COc1ccc(C#Cc2ccc([C@@H]3[C@H](CO)N4CCCCN(C(=O)Cc5cccnc5)C[C@@H]34)cc2)cc1 was Gaussia minus Italica difference -6.858%.

For O=C(C[C@H]1CC[C@@H]2[C@H](COC[C@@H](O)CN2C(=O)Nc2ccc(Cl)c(Cl)c2)O1)NCc1ccccc1 the result was Gaussia minus Italica difference 0.1242%. For O=C(C[C@@H]1CC[C@H]2[C@@H](COC[C@H](O)CN2S(=O)(=O)c2cccc(Cl)c2)O1)Nc1ccc(-c2ccccc2)cc1 the result was Gaussia minus Italica difference -8.94%. For O=C(Nc1ccc2c(c1)[C@H]1C[C@H](CC(=O)N3CCc4ccccc4C3)O[C@@H](CO)[C@H]1O2)c1ccc2c(c1)OCO2 the result was Gaussia minus Italica difference -2.893%. For O=C(Cc1ccncc1)Nc1ccc2c(c1)[C@@H]1C[C@H](CC(=O)N3CCc4ccccc4C3)O[C@@H](CO)[C@@H]1O2 the result was Gaussia minus Italica difference -17.52%. With C/C=C/c1ccc([C@H]2[C@@H](CO)N3CCCCN(S(=O)(=O)c4ccc(F)cc4)C[C@@H]23)cc1 the assay gave Gaussia minus Italica difference -12.04%. With O=C(C[C@@H]1CC[C@H]2[C@@H](COC[C@H](O)CN2Cc2cccc(Cl)c2)O1)NCc1cccc(F)c1 the assay gave Gaussia minus Italica difference -4.172%.

For C[C@H]1CN([C@@H](C)CO)C(=O)CCCn2nncc2CO[C@H]1CN(C)Cc1ccc(-c2ccccc2)cc1 the result was Gaussia minus Italica difference -4.812%. C[C@H]1CN([C@@H](C)CO)C(=O)c2c(c3ccccc3n2C)-c2ccccc2CO[C@H]1CN(C)Cc1ccccc1C(F)(F)F gave Gaussia minus Italica difference -24.05%. CC(C)C#Cc1ccc([C@@H]2[C@@H](CO)N3CCCCN(C(=O)c4ccc(F)cc4)C[C@@H]23)cc1 gave Gaussia minus Italica difference -16.1%. COc1ccc(C#Cc2ccc([C@H]3[C@@H](CO)N4CCCCN(C(=O)Cc5ccccc5)C[C@@H]34)cc2)cc1 gave Gaussia minus Italica difference -20.13%. COc1ccc2c3c([nH]c2c1)[C@@H](CO)N(C)CC31CN(S(=O)(=O)c2ccc(C)cc2)C1 gave Gaussia minus Italica difference -7.463%. For CN(C)C(=O)c1ccc(-c2ccc([C@H]3[C@H](C#N)N(C(=O)C4CCC4)[C@H]3CO)cc2)cc1 the result was Gaussia minus Italica difference -3.668%.

Result for O=S(=O)(c1ccc(F)cc1)N1CCCCN2[C@@H](CO)[C@@H](c3ccc(C#CC4CC4)cc3)[C@@H]2C1 was Gaussia minus Italica difference -8.537%. COc1ccc2c3c([nH]c2c1)[C@@H](CO)N(CC1CC1)CC31CN(C(=O)c2ccccc2)C1 gave Gaussia minus Italica difference -21.14%. Cc1ccccc1S(=O)(=O)N1C[C@@H]2N[C@H](C1)C2c1ccc(-c2cccc(C#N)c2)cc1 (some centres undefined) read Gaussia minus Italica difference 1.261%.

4 of the entries, repeated:

| Compound | Gaussia minus Italica difference (%) |
|---|---|
| `COc1ccc(-c2ccccc2[C@H]2[C@@H](C#N)N(C(=O)NC3CCCCC3)[C@H]2CO)cc1` | -8.564 |
| `COc1ccc(C#Cc2ccc([C@@H]3[C@@H](CO)N4CCCCN(C(=O)Nc5cccc(F)c5)C[C@H]34)cc2)cc1` | -7.268 |
| `CCN1[C@@H]2c3ccc(-c4cccnc4)c(=O)n3C[C@@H]2[C@@H](CO)[C@@H]1C(=O)NCc1ccccc1` | -4.46 |
| `COc1ccc(C#Cc2ccc([C@H]3[C@@H](CO)N4CCCCN(C(=O)Nc5cccc(F)c5)C[C@@H]34)cc2)cc1` | -15.69 |